Assays:
[1] = Rough feeling on damaged hair: MMD measured with friction tester KES-SE; design: species or system Human; conditions: approx. 0.2 mL oil agent on dry damaged hair
[2] = Odor after standing at 45° C. for 24 hours, judged by 10 monitors; conditions: 10 g sample, incubator 45° C.

N-2 ethylhexylbutyramide 4-isostearic acid ester [EHBA-IS]
rough feeling on the hair (MMD) [1]: exhibit an effect to reduce rough feeling on the hair
Odor (45° C. 24 hours) [2]: No odor (No odor: 0 to 2 people judged as “having an odor”)

N-cyclohexylbutyramide-4-isostearic acid ester [CHBA-IS]
rough feeling on the hair (MMD) [1]: exhibit an effect to reduce rough feeling on the hair
Odor (45° C. 24 hours) [2]: No odor (No odor: 0 to 2 people judged as “having an odor”)

di(cholesteryl/octyldodecyl) lauroylglutamate [Eldew CL-202]
Odor (45° C. 24 hours) [2]: Having an

di(phytosteryl/octyldodecyl) lauroylglutamate [Eldew PS-203]
Odor (45° C. 24 hours) [2]: Having a

From patent publication US20190314256A1, “COSMETIC BASE INCLUDING AMIDE ALCOHOL ESTER, AND COSMETIC” (Kokyu Alcohol Kogyo Co., Ltd., priority 2016, published 2019)
